PubChem BioAssay AID1259254 | NCATS | 2017
Test: 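Genome-wide screen for genes that prevent DNA re-replication in cancer cells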 (primary screen). Cell system: human HCT116 colorectal cancer cells. Knock-down reagent: single siRNA against human genes. Duration: 3 days. Detection: 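Nuclei stained with Hoechst and imaged; cell-cycle phase assigned by DNA content; G2 share scaled per plate, non-targeting siRNA 0%, GMNN siRNA 100%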. Direction: G2 robust z-score: higher = more G2 cells, more excess DNA replication. Rule for the call: 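Active siRNAs have a G2 robust z of 5 or more median absolute deviations over the median, which in these data means about 38% or higher of GMNN control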.
This is a random part of about 59,000 reagents. Of all reagents, about 1,550 (2.6%) got an active call. 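G2 share is only a proxy for re-replication; each gene was hit by three separate siRNAs, and active genes were retested.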 The numbers tell different reagents against one gene apart. Further read-outs or replicates are left out here. No sequences are given here. The record does not give: the amount of reagent.

G2 robust z-score, by gene knocked down and reagent
INPPL1 (inositol polyphosphate phosphatase like 1): #1 -1.17 inactive; #2 5.24 active; #3 3.13 inactive
PHYKPL (5-phosphohydroxy-L-lysine phospho-lyase): #1 -0.589 inactive; #2 0.921 inactive; #3 2.57 inactive
CYTH3 (cytohesin 3): #1 1.3 inactive; #2 -1.29 inactive; #3 -0.849 inactive
PFKM (phosphofructokinase, muscle): #1 -1.19 inactive; #2 -0.077 inactive; #3 -0.868 inactive
TNPO3 (transportin 3): #1 0.0146 inactive; #2 0.21 inactive; #3 -0.175 inactive
RDH5 (retinol dehydrogenase 5): #1 0.658 inactive; #2 0.119 inactive; #3 -0.492 inactive
C1orf226 (chromosome 1 open reading frame 226): #1 0.284 inactive; #2 0.185 inactive; #3 5.85 active

Hits, among the entries above:
G2 robust z-score, by gene knocked down and reagent
INPPL1 (inositol polyphosphate phosphatase like 1): #2 5.24 active
C1orf226 (chromosome 1 open reading frame 226): #3 5.85 active

Continued:
G2 robust z-score, by gene knocked down and reagent
THYN1 (thymocyte nuclear protein 1): #1 -0.316 inactive; #2 0.668 inactive; #3 -0.326 inactive
S100A12 (S100 calcium binding protein A12): #1 3.85 inactive; #2 -0.0526 inactive; #3 0.0866 inactive
LPXN (leupaxin): #1 3.47 inactive; #2 -0.336 inactive; #3 1.66 inactive
GGA3: #1 1.83 inactive; #2 -0.486 inactive; #3 1.11 inactive
ARHGEF3 (Rho guanine nucleotide exchange factor 3): #1 1.77 inactive; #2 0.613 inactive; #3 -0.0977 inactive
PPP1R15A (protein phosphatase 1 regulatory subunit 15A): #1 1.51 inactive; #2 -0.865 inactive; #3 -0.186 inactive
TCP11L1 (t-complex 11 like 1): #1 -0.787 inactive; #2 -0.244 inactive; #3 2.36 inactive
SEC61B (SEC61 translocon subunit beta): #1 0.221 inactive; #2 1.07 inactive; #3 0.8 inactive
SIX2 (SIX homeobox 2): #1 5.58 active; #2 0.761 inactive; #3 -0.345 inactive
